Test results reported in the supplement of paper PMC10331698.
± gives the standard deviation of the averaged measurements. Most entries show no effect beyond the scatter of the controls.

How the values were obtained:
Test in all cases: level (log10 ratio to DMSO vehicle control); higher = higher biomarker level / cell amount than vehicle control
[1] = compound: FC(F)(F)C(F)(F)CNCC(F)(F)C(F)(F)F [Bis(1H,1H-perfluoropropyl)amine] (in DMSO); conditions: 2200 nM
Method: (§1)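 BioMAP Diversity Plus panel of 12 human primary cell co-culture systems (3C, 4H, LPS, SAg, BT, BF4T, BE3C, CASM3C, HDF3CGF, KF3CT, MyoF, Mphg). Compounds were added 1 h before stimulation and left for 24 h (MyoF 48 h; BT 72 h for soluble read-outs or 6 d for IgG). Biomarkers were read by ELISA, cytotoxicity by SRB, PBMC viability and proliferation by Alamar Blue. Each well value was divided by the mean of 8 DMSO control wells on the same plate and log10 transformed; duplicate blinded samples were tested at 4 concentrations.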

Perfluorohexanoic acid = compound: O=C(O)C(F)(F)C(F)(F)C(F)(F)C(F)(F)C(F)(F)F [Perfluorohexanoic acid] (in DMSO)
Method: as §1

[2] = compound: FC(F)(F)C(F)(F)C(F)(F)C(F)(F)CCI [1H,1H,2H,2H-Perfluorohexyl iodide] (in DMSO); conditions: 2200 nM
Method: as §1

Hexafluoroglutaric acid = compound: O=C(O)C(F)(F)C(F)(F)C(F)(F)C(=O)O [Hexafluoroglutaric acid] (in DMSO)
Method: as §1

[3] = compound: O=C(O)C(F)(OC(F)(F)C(F)(F)C(F)(F)F)C(F)(F)F [Ammonium perfluoro-2-methyl-3-oxahexanoate] (in Water)
Method: as §1

[4] = compound: FC(F)(F)COC(OCC(F)(F)F)OCC(F)(F)F [tris(Trifluoroethoxy)methane] (in DMSO); conditions: 2200 nM
Method: as §1

[5] = compound: OCCCC(F)(F)C(F)(F)C(F)(F)C(F)(F)C(F)(F)C(F)(F)C(F)(F)C(F)(F)F [3-(Perfluorooctyl)propanol] (in DMSO); conditions: 2200 nM
Method: as §1

[6] = compound: OCC(F)(F)OC(F)(F)C(F)(F)OC(F)(F)CO [1H,1H,8H,8H-Perfluoro-3,6-dioxaoctane-1,8-diol] (in DMSO); conditions: 2200 nM
Method: as §1

[7] = compound: O=C(O)CCC(F)(F)C(F)(F)C(F)(F)F [3:3 Fluorotelomer carboxylic acid] (in DMSO); conditions: 2200 nM
Method: as §1

[8] = compound: OCC(F)(F)C(F)(F)C(F)(F)C(F)F [1H,1H,5H-Perfluoropentanol] (in DMSO); conditions: 2200 nM
Method: as §1

[9] = compound: O=S(=O)(O)C(F)(F)C(F)(F)C(F)(F)C(F)(F)F [Perfluorobutanesulfonic acid] (in DMSO)
Method: as §1

[10] = compound: OCC(F)(F)C(F)(F)C(F)(F)C(F)(F)C(F)(F)C(F)(F)CO [1H,1H,8H,8H-Perfluorooctane-1,8-diol] (in DMSO); conditions: 2200 nM
Method: as §1

[11] = compound: C=C(C)C(=O)OCCC(F)(F)C(F)(F)C(F)(F)C(F)(F)C(F)(F)C(F)(F)F [6:2 Fluorotelomer methacrylate] (in DMSO); conditions: 2200 nM
Method: as §1

[12] = compound: CNS(=O)(=O)C(F)(F)C(F)(F)C(F)(F)C(F)(F)C(F)(F)C(F)(F)C(F)(F)C(F)(F)F [N-Methylperfluorooctanesulfonamide] (in DMSO); conditions: 2200 nM
Method: as §1

[13] = compound: O=C(O)C(F)(F)C(F)(F)C(F)(F)OC(F)(C(F)(F)F)C(F)(F)F [Perfluoro-4-isopropoxybutanoic acid] (in DMSO); conditions: 2200 nM
Method: as §1

[14] = compound: OCC(F)(F)C(F)(F)C(F)(F)C(F)(F)C(F)(F)C(F)(F)F [6:1 Fluorotelomer alcohol] (in DMSO); conditions: 2200 nM
Method: as §1

[15] = compound: O=C(O)C(F)(OC(F)(F)C(F)(OC(F)(F)C(F)(OC(F)(F)C(F)(F)C(F)(F)F)C(F)(F)F)C(F)(F)F)C(F)(F)F [Perfluoro-(2,5,8-trimethyl-3,6,9-trioxadodecanoic)acid] (in DMSO); conditions: 370 nM
Method: as §1

Test System | level (log10) [1] | level (log10) (Perfluorohexanoic acid; 2200 nM) | level (log10) (Perfluorohexanoic acid; 6700 nM) | level (log10) (Perfluorohexanoic acid; 20000 nM) | level (log10) (Perfluorohexanoic acid; 60000 nM) | level (log10) [2] | level (log10) (Hexafluoroglutaric acid; 2200 nM) | level (log10) (Hexafluoroglutaric acid; 6700 nM) | level (log10) (Hexafluoroglutaric acid; 20000 nM) | level (log10) (Hexafluoroglutaric acid; 60000 nM) | level (log10) ([3]; 2200 nM) | level (log10) ([3]; 6700 nM) | level (log10) ([3]; 20000 nM) | level (log10) ([3]; 60000 nM) | level (log10) [4] | level (log10) [5] | level (log10) [6] | level (log10) [7] | level (log10) [8] | level (log10) ([9]; 2200 nM) | level (log10) ([9]; 6700 nM) | level (log10) ([9]; 20000 nM) | level (log10) ([9]; 60000 nM) | level (log10) [10] | level (log10) [11] | level (log10) [12] | level (log10) [13] | level (log10) [14] | level (log10) [15]
lMphg:M-CSF | -0.003 ± 0.028 | 0.0075 ± 0.022 | 0.0005 ± 0.028 | -0.011 ± 0.028 | -0.023 ± 0.0014 | -0.008 ± 0.0057 | -0.0285 ± 0.044 | -0.028 ± 0.014 | -0.017 ± 0.0042 | -0.0175 ± 0.019 | -0.0885 ± 0.013 | -0.084 ± 0.021 | -0.0725 ± 0.00071 | -0.0815 ± 0.011 | -0.006 ± 0.0014 | 0.0155 ± 0.047 | 0.0085 ± 0.025 | -0.0025 ± 0.042 | -0.0205 ± 0.00071 | 0.0295 ± 0.032 | 0.021 ± 0.028 | -0.0045 ± 0.074 | -0.0045 ± 0.07 | 0.012 ± 0.04 | 0.016 ± 0.011 | 0.0055 ± 0.025 | 0.01 ± 0.033 | -0.0215 ± 0.059 | 0.0265 ± 0.052
SAg:CXCL8/IL-8 | 0.0285 ± 0.03 | -0.008 ± 0.0057 | -0.049 ± 0.052 | -0.009 ± 0.038 | 0.0035 ± 0.084 | 0.0055 ± 0.0092 | 0.017 ± 0.025 | -0.011 | -0.041 ± 0.042 | 0.0285 ± 0.077 | 0.117 ± 0.083 | 0.103 ± 0.0085 | 0.099 ± 0.0085 | 0.167 ± 0.047 | 0.0145 ± 0.037 | 0.0695 ± 0.086 | 0.0145 ± 0.039 | 0.0215 ± 0.064 | 0.008 ± 0.057 | 0.009 ± 0.023 | -0.0025 ± 0.023 | -0.001 ± 0.014 | 0.049 ± 0.037 | 0.015 ± 0.023 | 0.0345 ± 0.076 | 0.0025 ± 0.032 | 0 ± 0.04 | 0.01 ± 0.11 | -0.0155 ± 0.059
BF4T:MMP-3 | 0.0025 ± 0.04 | -0.0085 ± 0.0021 | 0.003 ± 0.024 | -0.0095 ± 0.00071 | 0.0295 ± 0.043 | 0.0385 ± 0.0035 | 0.0305 ± 0.084 | -0.0045 ± 0.0092 | -0.0125 ± 0.035 | 0.0175 ± 0.0021 | 0.005 ± 0.0028 | 0.0335 ± 0.047 | 0.018 ± 0.0057 | 0.048 ± 0.014 | 0.02 ± 0.048 | 0.018 ± 0.031 | 0.0075 ± 0.056 | 0.0185 ± 0.037 | 0.005 ± 0.014 | 0.0335 ± 0.013 | 0.014 ± 0.0014 | 0.001 | 0.042 ± 0.033 | 0.007 ± 0.0099 | 0.0205 ± 0.00071 | 0.0235 ± 0.00071 | 0.0215 ± 0.021 | -0.0055 ± 0.04 | 0.0055 ± 0.039
LPS:sTNF-alpha | 0.0045 ± 0.019 | -0.0235 ± 0.029 | -0.009 ± 0.0014 | -0.0005 ± 0.021 | -0.0515 ± 0.0021 | 0.046 ± 0.035 | 0 ± 0.021 | 0.0045 ± 0.026 | -0.0025 ± 0.022 | 0.0035 ± 0.0064 | -0.054 ± 0.038 | -0.068 ± 0.021 | -0.0375 ± 0.043 | -0.0225 ± 0.033 | -0.0045 ± 0.016 | -0.136 ± 0.038 | -0.049 ± 0.013 | 0.0045 ± 0.011 | 0.022 ± 0.028 | -0.019 ± 0.054 | 0.002 ± 0.028 | -0.0175 ± 0.023 | -0.0075 ± 0.026 | -0.125 ± 0.013 | 0.0275 ± 0.023 | 0.0455 ± 0.013 | 0.0145 ± 0.14 | 0.003 ± 0.033 | -0.024 ± 0.05
BE3C:uPA | -0.001 ± 0.025 | -0.0195 ± 0.029 | -0.03 ± 0.013 | -0.01 ± 0.018 | 0.0025 ± 0.016 | 0.005 ± 0.0057 | -0.0035 ± 0.025 | -0.01 ± 0.0085 | -0.017 ± 0.0042 | -0.0075 ± 0.011 | 0.0405 ± 0.0078 | 0.033 ± 0.027 | 0.0315 ± 0.016 | 0.0245 ± 0.012 | 0.0045 ± 0.012 | 0.0005 ± 0.0078 | 0.0135 ± 0.018 | -0.0005 ± 0.043 | -0.0015 ± 0.026 | -0.009 ± 0.0085 | -0.0035 ± 0.0021 | -0.007 ± 0.0042 | -0.005 ± 0.0099 | -0.0075 ± 0.0064 | 0.005 ± 0.0085 | 0.008 ± 0.014 | -0.0025 ± 0.012 | -0.0095 ± 0.022 | 0.0115 ± 0.013
MyoF:Collagen III | -0.013 ± 0.025 | 0.004 | 0.0075 ± 0.012 | 0.003 ± 0.02 | 0.0105 ± 0.0092 | -0.002 ± 0.0014 | 0.0105 ± 0.005 | 0.006 ± 0.0042 | 0.0035 ± 0.005 | 0.0055 ± 0.00071 | -0.008 ± 0.0042 | 0.0135 ± 0.0035 | 0.006 ± 0.023 | -0.035 ± 0.034 | -0.015 ± 0.0028 | -0.0155 ± 0.023 | -0.0235 ± 0.0064 | -0.007 ± 0.016 | 0.024 ± 0.016 | 0.0135 ± 0.025 | 0.02 ± 0.024 | 0.0265 ± 0.0064 | 0.0145 ± 0.0064 | -0.0045 ± 0.0078 | 0.0285 ± 0.021 | 0.003 ± 0.0085 | 0.008 | -0.0005 ± 0.015 | -0.007 ± 0.0085
BF4T:MMP-9 | 0.006 ± 0.031 | 0.004 ± 0.025 | 0.0215 ± 0.0035 | -0.01 ± 0.027 | 0.0215 ± 0.018 | 0.0335 ± 0.026 | -0.0065 ± 0.025 | -0.003 ± 0.0014 | -0.0135 ± 0.012 | 0.007 ± 0.0028 | 0.0405 ± 0.04 | 0.0275 ± 0.005 | 0.047 ± 0.017 | 0.075 ± 0.013 | 0.0265 ± 0.056 | 0.017 ± 0.092 | -0.005 ± 0.045 | 0.017 ± 0.081 | 0.0025 ± 0.013 | 0.007 ± 0.0099 | -0.004 ± 0.0014 | -0.0065 ± 0.028 | -0.013 ± 0.02 | -0.0075 ± 0.035 | -0.035 ± 0.047 | 0.0035 ± 0.035 | 0.026 ± 0.037 | 0.03 ± 0.061 | 0.0205 ± 0.011
BF4T:CCL26/Eotaxin-3 | 0.0165 ± 0.088 | 0.024 ± 0.0014 | 0.0135 ± 0.015 | 0.005 ± 0.024 | 0.0115 ± 0.011 | 0.003 ± 0.018 | 0.022 ± 0.083 | 0.016 ± 0.054 | 0.0055 ± 0.042 | 0.043 ± 0.011 | -0.0895 ± 0.042 | -0.128 ± 0.03 | -0.0995 ± 0.06 | -0.137 ± 0.03 | 0.018 ± 0.035 | -0.015 ± 0.041 | 0.0565 ± 0.03 | 0.0125 ± 0.043 | -0.004 ± 0.0071 | -0.028 ± 0.072 | -0.057 ± 0.09 | -0.014 ± 0.035 | -0.003 ± 0.047 | 0.0135 ± 0.022 | 0.022 ± 0.035 | -0.108 ± 0.14 | 0.027 ± 0.1 | 0.0465 ± 0.042 | 0.002 ± 0.0099
